Assay results: PubChem BioAssay AID485298 (National Center for Advancing Translational Sciences (NCATS), 2010)
About 740 (0.23%) of roughly 320,000 compounds were called active. The inconclusive results got no clear call from the source; some entries with a clear call stand among them for comparison. Calls come from the whole dose curve; as a rule, active = well fitted activation curve with a large enough effect; inconclusive = small, poorly fitted or top-dose-only effect; inactive = no such curve, though single readings can be large or run the other way. A potency beside an inconclusive call is a rough fit, not a confirmed value.

Assay: qHTS Assay for Small Molecule Inhibitors of Mitochondrial Division or Activators of Mitochondrial Fusion; note: nearly all actives have a fitted effect of over 45% in size;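 for growth rescue (activation): temperature-sensitive fusion mutants such as fzo1-1 at 37 °C on non-fermentable ethanol glycerol medium; % of control where 0% means no effect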
Conditions: S. cerevisiae fusion-defective mutant growth rescue, CellTiterGlo 48 h; growth rescue (activation): at 46.1 µM (top of the series) unless noted
How it was run: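 Yeast fusion mutant, YPEG (non-fermentable carbon), compound, 48 h at 37C non-permissive; CellTiterGlo added, 10 min RT, luminescence read. Rescued growth = division inhibition.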
Potency is the fitted concentration of half-maximal effect.

Row | SMILES | growth rescue (activation) | Potency
1 | OC[C@H]1O[C@H](n2cnc3c(N[C@H]4CCC[C@@H]4O)ncnc32)[C@H](O)[C@@H]1O | inactive: -30.1% | 
2 | O=C(Nc1ccccc1)N1N=C(c2cccs2)CC1c1cccs1 (stereo not drawn) |  | active: 11.2 µM
3 | Cc1cc2cc(C(=O)N3CCc4c([nH]c5ccccc45)C3c3ccccn3)ccc2o1 (stereo not drawn) |  | inconclusive: 14.1 µM [activator, partial curve]
4 | COc1ccccc1OCC(=O)Nc1nnc(-c2ccco2)s1 |  | inconclusive: 3.98 µM [activator, full curve]
5 | O=C(Nc1ccccc1)c1cccc(S(=O)(=O)Oc2ccc([N+](=O)[O-])cc2)c1 |  | inconclusive: 25.1 µM [activator, single point]
6 | CN(CC(=O)Nc1cccc(F)c1)C(=O)c1cc(-c2ccccc2)nc2ccccc12 |  | inconclusive: 25.1 µM [activator, single point]
7 | S=c1[nH]nc(-c2cccc(Cl)c2)n1Cc1ccccc1 | inactive: 27.5% | 
8 | O=C(c1cc(COc2ccc(F)cc2Cl)on1)N1CCCCCC1 | inactive: -1.25% | 
9 | O=C(Nc1ncccc1Cl)c1ccc2c(c1)OCCO2 | inactive: -6.82% | 
10 | FC(F)(F)c1ccc(Cl)c(NC(=S)N/N=C/c2ccccc2C(F)(F)F)c1 | inactive: -16% | 
11 | O=C(Nc1nnc(-c2cccs2)o1)c1cc(-c2ccccc2)nc2ccccc12 |  | active: 12.6 µM
12 | CCCCOc1ccc(C(=O)Nc2ccc(CN3CCOCC3)cc2)cc1 |  | inconclusive: 11.2 µM [activator, partial curve]
13 | Cc1c(C(=O)Nc2ccc3oc(-c4cccnc4)nc3c2)oc2ccccc12 | inactive: 1.93% | 
14 | Cc1cc(C)c(C#N)c(SCC2COc3ccccc3O2)n1 (stereo not drawn) |  | inconclusive: 12.6 µM [activator, partial curve]
15 | O=C(CN1CC(=O)Oc2ccccc21)OCC(=O)c1ccc(F)cc1 |  | inconclusive: 0.501 µM [activator, full curve, poor fit]
16 | O=C(NC1CCCC1)C(c1ccco1)N(C(=O)c1ccco1)c1ccccc1 (stereo not drawn) | inactive: 2.35% | 
17 | COc1ccc(C(=O)O/N=C(/C)c2cccs2)cc1 | inactive: -9.48% | 
18 | Cc1cc(C)cc(-c2nc(-c3ccncc3)no2)c1 | inactive: 0.142% | 
19 | Cc1nn(C2CCS(=O)(=O)C2)c(Cl)c1/C=C/C(=O)OCC(=O)c1cc(C)n(-c2ccc(F)cc2)c1C (stereo not drawn) | inactive: -4.33% | 

Row | SMILES | growth rescue (activation) | Potency
20 | COc1ccc(CNC(=O)c2cc3c(=O)n4cccc(C)c4nc3n(CC3CCCO3)c2=N)cc1 (stereo not drawn) | inactive: 2.48% | 
21 | CC(=O)Nc1cccc(-c2nc3ccccc3[nH]2)c1 |  | inconclusive: 6.31 µM [activator, partial curve, poor fit]
22 | COC(=O)C1NN=C(C(=O)c2ccc(Br)cc2)C1c1cccc(Br)c1 (stereo not drawn) |  | inconclusive: 35.5 µM [activator, single point]
23 | CC(Oc1ccccc1)C(=O)Nc1nc(-c2ccccn2)cs1 (stereo not drawn) |  | inconclusive: 31.6 µM [activator, single point]
24 | O=C(Nc1nnc(-c2ccc(Cl)s2)o1)C1CC1 | inactive: -6.47% | 
25 | O=C(/C=C/c1ccc(Cl)cc1)N1CCN(c2ccccc2[N+](=O)[O-])CC1 |  | inconclusive: 15.8 µM [activator, single point]
26 | COc1ccc(Nc2nc(-c3cccs3)nc3ccccc23)cc1 |  | inconclusive: 22.4 µM [activator, single point]
27 | Cc1cc(Nc2ccc(Cl)cc2)n(-c2cccc(Cl)c2)n1 |  | inconclusive: 17.8 µM [activator, single point]
28 | O=C(Nc1nccs1)c1ccc(-c2ccccc2Cl)o1 |  | inconclusive: 31.6 µM [activator, single point]
29 | C/C(=N\NC(=O)COc1ccccc1-c1ccccc1)c1ccccn1 |  | inconclusive: 17.8 µM [activator, partial curve]
30 | Cc1cc(OCC(=O)N2CCCC2)cc(C)c1Cl |  | inconclusive: 0.562 µM [activator, partial curve, poor fit]
31 | O=C(CSc1nncs1)NCCCc1ccccc1 |  | inconclusive: 6.31 µM [activator, single point]
32 | COCCn1c(SCc2ccc(C(=O)OC)o2)nc2cc(Cl)ccc2c1=O |  | inconclusive: 14.1 µM [activator, partial curve]
33 | CC1CCCCC12NC(=S)N(c1ccccc1)N2 (stereo not drawn) | inactive: 1.58% | 
34 | CC(C)CCN(Cc1ccco1)S(=O)(=O)c1ccc(-c2ccc(=O)[nH]n2)s1 |  | inconclusive: 7.94 µM [activator, partial curve]
35 | O=c1c2ccccc2[nH]c2ccccc12 |  | inconclusive: 11.2 µM [activator, partial curve]
36 | COc1ccc(C(=O)Nc2ccc(NC(=O)c3cccs3)c(OC)c2)cc1Cl | inactive: -10.1% | 
37 | CCC1CCCCN1CCCNC(=O)Cn1c(=O)c2cccn2c2cccnc21 (stereo not drawn) |  | inconclusive: 6.31 µM [activator, single point]
38 | O=C(CN1C(=O)c2cccnc2Oc2ccc(Cl)cc21)NCCCc1ccccc1 |  | inconclusive: 0.562 µM [activator, full curve, poor fit]

Among those listed so far, 2 contain a nitro group on carbon.
Row | SMILES | growth rescue (activation) | Potency
5 | O=C(Nc1ccccc1)c1cccc(S(=O)(=O)Oc2ccc([N+](=O)[O-])cc2)c1 |  | inconclusive: 25.1 µM [activator, single point]
25 | O=C(/C=C/c1ccc(Cl)cc1)N1CCN(c2ccccc2[N+](=O)[O-])CC1 |  | inconclusive: 15.8 µM [activator, single point]
